These results are taken from PMC6539845.

These are yes or no findings as the source states them, for the method shown. Some binding calls cover weakened binding; strength is not graded here.

The target of this assay is human proteasome α7 subunit, wild type (human) (UniProt P25788). The experiment in a line: SEC; single proteins, 0.3–10 μM, Superose 6 increase 10/300 GL, 20 mM Tris-HCl (pH 8.0), 150 mM NaCl; both purified.

Turning to “human proteasome α7 subunit, wild type (from UniProt P25788 1-255)”, the binding result was “binds”.
